Article PMC10592355

Sequences of proteins named here, by UniProt entry; tags and fusion partners are left off.
UniProt Q13263: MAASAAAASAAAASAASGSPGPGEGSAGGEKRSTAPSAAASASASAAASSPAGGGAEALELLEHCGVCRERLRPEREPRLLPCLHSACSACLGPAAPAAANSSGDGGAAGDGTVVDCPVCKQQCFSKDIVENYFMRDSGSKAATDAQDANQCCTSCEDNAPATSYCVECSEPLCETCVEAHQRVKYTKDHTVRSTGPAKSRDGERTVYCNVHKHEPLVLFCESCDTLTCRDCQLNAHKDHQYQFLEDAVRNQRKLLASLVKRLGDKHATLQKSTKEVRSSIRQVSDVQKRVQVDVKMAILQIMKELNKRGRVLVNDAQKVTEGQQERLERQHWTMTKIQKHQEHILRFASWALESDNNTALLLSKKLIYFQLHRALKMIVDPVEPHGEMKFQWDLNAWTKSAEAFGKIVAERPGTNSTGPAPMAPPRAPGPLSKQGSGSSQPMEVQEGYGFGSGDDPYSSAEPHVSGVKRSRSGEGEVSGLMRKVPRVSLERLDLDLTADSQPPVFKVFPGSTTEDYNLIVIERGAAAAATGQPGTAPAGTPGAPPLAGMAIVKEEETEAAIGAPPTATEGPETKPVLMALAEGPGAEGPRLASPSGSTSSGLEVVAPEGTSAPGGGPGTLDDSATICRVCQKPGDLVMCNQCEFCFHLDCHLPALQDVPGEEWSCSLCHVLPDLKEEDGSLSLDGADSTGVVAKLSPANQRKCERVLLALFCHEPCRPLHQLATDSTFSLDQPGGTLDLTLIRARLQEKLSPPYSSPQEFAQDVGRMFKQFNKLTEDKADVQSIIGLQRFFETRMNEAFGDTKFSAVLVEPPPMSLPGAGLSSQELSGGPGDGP
UniProt Q92769: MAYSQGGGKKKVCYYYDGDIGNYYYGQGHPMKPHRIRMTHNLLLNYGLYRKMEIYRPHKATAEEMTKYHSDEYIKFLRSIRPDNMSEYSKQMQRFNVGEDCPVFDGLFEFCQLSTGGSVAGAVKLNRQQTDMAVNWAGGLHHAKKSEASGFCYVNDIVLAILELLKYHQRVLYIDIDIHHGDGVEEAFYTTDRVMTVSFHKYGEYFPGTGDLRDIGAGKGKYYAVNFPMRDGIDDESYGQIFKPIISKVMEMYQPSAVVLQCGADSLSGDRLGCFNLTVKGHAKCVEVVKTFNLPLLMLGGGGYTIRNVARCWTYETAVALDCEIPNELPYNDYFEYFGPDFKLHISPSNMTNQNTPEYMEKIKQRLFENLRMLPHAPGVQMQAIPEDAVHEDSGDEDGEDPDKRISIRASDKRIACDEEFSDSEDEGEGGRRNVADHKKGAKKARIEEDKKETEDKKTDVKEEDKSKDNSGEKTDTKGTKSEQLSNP
UniProt Q14839: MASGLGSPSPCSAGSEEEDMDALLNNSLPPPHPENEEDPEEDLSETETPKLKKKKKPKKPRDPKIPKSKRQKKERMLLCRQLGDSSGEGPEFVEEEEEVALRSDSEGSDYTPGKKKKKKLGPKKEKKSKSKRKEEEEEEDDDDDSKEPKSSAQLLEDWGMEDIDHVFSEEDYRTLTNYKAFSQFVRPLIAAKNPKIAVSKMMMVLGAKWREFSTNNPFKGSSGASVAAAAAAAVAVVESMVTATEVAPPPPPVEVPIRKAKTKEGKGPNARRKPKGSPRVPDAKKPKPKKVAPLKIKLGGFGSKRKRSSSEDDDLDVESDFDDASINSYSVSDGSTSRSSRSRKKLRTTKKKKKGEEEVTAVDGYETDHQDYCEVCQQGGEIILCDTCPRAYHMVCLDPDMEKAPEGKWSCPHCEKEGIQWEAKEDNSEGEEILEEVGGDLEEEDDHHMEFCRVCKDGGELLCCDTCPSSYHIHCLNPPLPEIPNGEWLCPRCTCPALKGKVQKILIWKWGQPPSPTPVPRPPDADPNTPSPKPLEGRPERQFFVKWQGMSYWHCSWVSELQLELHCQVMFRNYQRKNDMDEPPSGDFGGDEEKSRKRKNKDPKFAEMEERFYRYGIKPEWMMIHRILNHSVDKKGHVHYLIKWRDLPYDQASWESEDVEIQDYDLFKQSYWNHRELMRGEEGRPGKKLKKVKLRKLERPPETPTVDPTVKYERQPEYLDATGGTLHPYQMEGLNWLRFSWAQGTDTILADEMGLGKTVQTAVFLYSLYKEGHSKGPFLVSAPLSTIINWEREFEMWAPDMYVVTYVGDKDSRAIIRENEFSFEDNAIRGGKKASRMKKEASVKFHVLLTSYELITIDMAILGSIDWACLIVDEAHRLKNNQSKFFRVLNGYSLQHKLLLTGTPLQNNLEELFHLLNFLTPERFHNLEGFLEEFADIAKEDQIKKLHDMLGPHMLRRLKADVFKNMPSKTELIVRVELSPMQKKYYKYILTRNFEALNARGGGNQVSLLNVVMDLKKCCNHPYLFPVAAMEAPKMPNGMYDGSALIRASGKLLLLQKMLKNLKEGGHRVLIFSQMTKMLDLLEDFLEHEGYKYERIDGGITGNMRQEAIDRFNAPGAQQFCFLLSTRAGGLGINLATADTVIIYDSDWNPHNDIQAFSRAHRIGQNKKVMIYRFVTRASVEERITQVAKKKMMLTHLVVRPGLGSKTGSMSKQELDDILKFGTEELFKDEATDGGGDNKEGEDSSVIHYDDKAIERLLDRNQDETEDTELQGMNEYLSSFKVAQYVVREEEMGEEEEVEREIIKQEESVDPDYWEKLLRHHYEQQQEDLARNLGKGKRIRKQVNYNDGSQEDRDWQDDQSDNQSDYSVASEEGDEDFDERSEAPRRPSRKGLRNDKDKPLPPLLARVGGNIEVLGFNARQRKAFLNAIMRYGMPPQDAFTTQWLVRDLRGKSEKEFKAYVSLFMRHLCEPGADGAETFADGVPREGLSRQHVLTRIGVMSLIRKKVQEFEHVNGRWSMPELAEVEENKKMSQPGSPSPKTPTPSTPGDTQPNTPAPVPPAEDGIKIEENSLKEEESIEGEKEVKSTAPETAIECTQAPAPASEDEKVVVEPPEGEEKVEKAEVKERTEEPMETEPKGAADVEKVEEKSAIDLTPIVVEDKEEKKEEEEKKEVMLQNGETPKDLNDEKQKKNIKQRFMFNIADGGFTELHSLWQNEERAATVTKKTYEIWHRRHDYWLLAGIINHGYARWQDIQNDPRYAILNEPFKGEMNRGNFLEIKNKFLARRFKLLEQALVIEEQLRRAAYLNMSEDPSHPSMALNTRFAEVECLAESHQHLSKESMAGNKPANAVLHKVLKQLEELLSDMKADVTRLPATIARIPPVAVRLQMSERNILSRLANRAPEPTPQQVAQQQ

target: T1, TyrRS fused with a streptavidin-binding peptide (SBP) and a calmodulin-binding peptide (CBP) (human) (UniProt P54577); experiment: affinity purification with mass spectrometry; tandem affinity purification (TAP-MS): whole cell lysate of HEK293 cells expressing TyrRS with SBP and CBP tags on Streptavidin resin, eluate then on Calmodulin resin; final eluate analysed by mass spectrometry
T1 sequence: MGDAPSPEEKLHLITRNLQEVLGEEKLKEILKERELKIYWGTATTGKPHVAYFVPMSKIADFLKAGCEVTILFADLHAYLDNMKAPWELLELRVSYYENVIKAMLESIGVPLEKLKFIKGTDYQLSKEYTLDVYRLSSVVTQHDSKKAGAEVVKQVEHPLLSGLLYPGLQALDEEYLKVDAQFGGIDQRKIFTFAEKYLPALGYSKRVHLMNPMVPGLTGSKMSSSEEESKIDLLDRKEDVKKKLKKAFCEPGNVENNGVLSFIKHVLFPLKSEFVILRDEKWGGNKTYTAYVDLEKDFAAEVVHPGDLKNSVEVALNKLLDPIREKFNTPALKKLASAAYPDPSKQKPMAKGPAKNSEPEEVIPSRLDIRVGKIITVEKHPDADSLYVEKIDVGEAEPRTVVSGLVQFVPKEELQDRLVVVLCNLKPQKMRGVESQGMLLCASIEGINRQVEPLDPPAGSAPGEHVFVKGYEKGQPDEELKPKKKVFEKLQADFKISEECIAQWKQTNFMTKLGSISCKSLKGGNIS

binding, binds:
TRIM28 (from UniProt Q13263 1-835)
HDAC2 (from UniProt Q92769 1-488)
CHD4 (from UniProt Q14839 1-1912)

No constants are given. Whether binding was seen depends on the method and setting. In cells and extracts the contact can be indirect. A yes stands for co-enrichment or nearness to the bait. Other partners may have been found. Where a sequence is shown, tags or fusion partners need not be part of it.
